# This is one part of the list. The signal is at background level for most entries.
# Assays:
# Assay in all cases: fluorescence intensity of antibody binding to polysaccharide-coupled beads; higher = stronger binding
# [1] = target: pneumococcal polysaccharide Pn34
# Description: (§1)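 Recombinant rhesus-murine chimeric IgG1 antibodies were tested against antigen-coupled MagPlex beads in a 96-plex Luminex direct immunoassay (dLIA). The beads carried pneumococcal capsular polysaccharides of 93 serotypes plus C-polysaccharides. Antibody was added at 0.1–12,500 ng/mL for 1 h, then PE anti-mouse IgG, and net MFI was read on a Bio-Plex 3D. Only the rhesus variable regions are printed; constant regions are murine IgG1/kappa/lambda, and the signal peptide is MGWSCIILFLVATATGVHS.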
# [2] = target: pneumococcal polysaccharide Pn35A
# Description: as §1
# [3] = target: pneumococcal polysaccharide Pn35B
# Description: as §1
# [4] = target: pneumococcal polysaccharide Pn35C
# Description: as §1
# [5] = target: pneumococcal polysaccharide Pn35F
# Description: as §1
# [6] = target: pneumococcal polysaccharide Pn36
# Description: as §1
# [7] = target: pneumococcal polysaccharide Pn37
# Description: as §1
# [8] = target: pneumococcal polysaccharide Pn38
# Description: as §1
# [9] = target: pneumococcal polysaccharide Pn39
# Description: as §1
# [10] = target: pneumococcal polysaccharide Pn4
# Description: as §1
# [11] = target: pneumococcal polysaccharide Pn40
# Description: as §1
# [12] = target: pneumococcal polysaccharide Pn41A
# Description: as §1
# [13] = antibody concentration 0.1 ng/mL
# [14] = antibody concentration 0.534724 ng/mL
# [15] = antibody concentration 2.8593 ng/mL
# [16] = antibody concentration 15.2894 ng/mL
# [17] = antibody concentration 81.7561 ng/mL
# [18] = antibody concentration 437.17 ng/mL
# [19] = antibody concentration 2337.65 ng/mL
# [20] = antibody concentration 12500 ng/mL
binder,measurement,setting,value
4-127.3 (protein) chain 1: QVQLQESGPGLVKPSETLSLTCAVSGYSISSGYGWSWIRQPPGKGLEWIGYIGGSSGSTNYNPSLKSRVTVSKDTSKNQFSLKLSSVTAADTAVYYCARADYCTSTTCYGPNRFDVWGPGVLVTVSS chain 2: QAAPTQSPSVSGSAGQSVTISCTGSSSDIGYYNGVSWYQHHPGKAPKLMIYEVSKRPSGVSNRFSGSKSGNTASLTISGLQAADEADYFCSSYAGSGTYIFGAGTRLTVL,fluorescence intensity,[1]; [13],15 MFI
same,fluorescence intensity,[1]; [14],15 MFI
same,fluorescence intensity,[1]; [15],15 MFI
same,fluorescence intensity,[1]; [16],13.5 MFI
same,fluorescence intensity,[1]; [17],14.8 MFI
same,fluorescence intensity,[1]; [18],14.5 MFI
same,fluorescence intensity,[1]; [19],15.8 MFI
same,fluorescence intensity,[1]; [20],20 MFI
same,fluorescence intensity,[2]; [13],20.5 MFI
same,fluorescence intensity,[2]; [14],17.5 MFI
same,fluorescence intensity,[2]; [15],18 MFI
same,fluorescence intensity,[2]; [16],16.5 MFI
same,fluorescence intensity,[2]; [17],17 MFI
same,fluorescence intensity,[2]; [18],16.5 MFI
same,fluorescence intensity,[2]; [19],22.5 MFI
same,fluorescence intensity,[2]; [20],47.2 MFI
same,fluorescence intensity,[3]; [13],20.5 MFI
same,fluorescence intensity,[3]; [14],20 MFI
same,fluorescence intensity,[3]; [15],18.8 MFI
same,fluorescence intensity,[3]; [16],18.5 MFI
same,fluorescence intensity,[3]; [17],19.5 MFI
same,fluorescence intensity,[3]; [18],18.8 MFI
same,fluorescence intensity,[3]; [19],20 MFI
same,fluorescence intensity,[3]; [20],37 MFI
same,fluorescence intensity,[4]; [13],21.2 MFI
same,fluorescence intensity,[4]; [14],20.5 MFI
same,fluorescence intensity,[4]; [15],20.5 MFI
same,fluorescence intensity,[4]; [16],19.5 MFI
same,fluorescence intensity,[4]; [17],19.5 MFI
same,fluorescence intensity,[4]; [18],20.5 MFI
same,fluorescence intensity,[4]; [19],20 MFI
same,fluorescence intensity,[4]; [20],24 MFI
same,fluorescence intensity,[5]; [13],20.8 MFI
same,fluorescence intensity,[5]; [14],19.5 MFI
same,fluorescence intensity,[5]; [15],22.8 MFI
same,fluorescence intensity,[5]; [16],19 MFI
same,fluorescence intensity,[5]; [17],21 MFI
same,fluorescence intensity,[5]; [18],20.8 MFI
same,fluorescence intensity,[5]; [19],22 MFI
same,fluorescence intensity,[5]; [20],23.5 MFI
same,fluorescence intensity,[6]; [13],15.5 MFI
same,fluorescence intensity,[6]; [14],16 MFI
same,fluorescence intensity,[6]; [15],14.5 MFI
same,fluorescence intensity,[6]; [16],16.5 MFI
same,fluorescence intensity,[6]; [17],16.5 MFI
same,fluorescence intensity,[6]; [18],16 MFI
same,fluorescence intensity,[6]; [19],18.8 MFI
same,fluorescence intensity,[6]; [20],49 MFI
same,fluorescence intensity,[7]; [13],26.8 MFI
same,fluorescence intensity,[7]; [14],25.5 MFI
same,fluorescence intensity,[7]; [15],26 MFI
same,fluorescence intensity,[7]; [16],26 MFI
same,fluorescence intensity,[7]; [17],28.5 MFI
same,fluorescence intensity,[7]; [18],28 MFI
same,fluorescence intensity,[7]; [19],44.2 MFI
same,fluorescence intensity,[7]; [20],148 MFI
same,fluorescence intensity,[8]; [13],27 MFI
same,fluorescence intensity,[8]; [14],27.2 MFI
same,fluorescence intensity,[8]; [15],27.5 MFI
same,fluorescence intensity,[8]; [16],27.5 MFI
same,fluorescence intensity,[8]; [17],26 MFI
same,fluorescence intensity,[8]; [18],26.5 MFI
same,fluorescence intensity,[8]; [19],30.5 MFI
same,fluorescence intensity,[8]; [20],35.5 MFI
same,fluorescence intensity,[9]; [13],20 MFI
same,fluorescence intensity,[9]; [14],18 MFI
same,fluorescence intensity,[9]; [15],18 MFI
same,fluorescence intensity,[9]; [16],18 MFI
same,fluorescence intensity,[9]; [17],17.5 MFI
same,fluorescence intensity,[9]; [18],19 MFI
same,fluorescence intensity,[9]; [19],21.5 MFI
same,fluorescence intensity,[9]; [20],38.8 MFI
same,fluorescence intensity,[10]; [13],19 MFI
same,fluorescence intensity,[10]; [14],19 MFI
same,fluorescence intensity,[10]; [15],18.5 MFI
same,fluorescence intensity,[10]; [16],19 MFI
same,fluorescence intensity,[10]; [17],18.5 MFI
same,fluorescence intensity,[10]; [18],19.8 MFI
same,fluorescence intensity,[10]; [19],24.5 MFI
same,fluorescence intensity,[10]; [20],39 MFI
same,fluorescence intensity,[11]; [13],17.2 MFI
same,fluorescence intensity,[11]; [14],15.5 MFI
same,fluorescence intensity,[11]; [15],16.5 MFI
same,fluorescence intensity,[11]; [16],16.5 MFI
same,fluorescence intensity,[11]; [17],17.2 MFI
same,fluorescence intensity,[11]; [18],18 MFI
same,fluorescence intensity,[11]; [19],21.5 MFI
same,fluorescence intensity,[11]; [20],54.2 MFI
same,fluorescence intensity,[12]; [13],24.8 MFI
same,fluorescence intensity,[12]; [14],24 MFI

# 3 records picked at random from those above:
binder,measurement,setting,value
4-127.3 (protein) chain 1: QVQLQESGPGLVKPSETLSLTCAVSGYSISSGYGWSWIRQPPGKGLEWIGYIGGSSGSTNYNPSLKSRVTVSKDTSKNQFSLKLSSVTAADTAVYYCARADYCTSTTCYGPNRFDVWGPGVLVTVSS chain 2: QAAPTQSPSVSGSAGQSVTISCTGSSSDIGYYNGVSWYQHHPGKAPKLMIYEVSKRPSGVSNRFSGSKSGNTASLTISGLQAADEADYFCSSYAGSGTYIFGAGTRLTVL,fluorescence intensity,[9]; [16],18 MFI
same,fluorescence intensity,[8]; [20],35.5 MFI
same,fluorescence intensity,[8]; [15],27.5 MFI
